PubChem BioAssay AID1259405 | NCATS, 2018
Purpose: 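Knock-downs that lift recombinant protein yield in hamster ovary cells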 (primary screen). System: Chinese hamster CHO-K1 ovary cells with stable secreted eGFP expression. Reagents: single siRNA against mouse genes, 0.8 pmol siRNA per well (2 µl of 400 nM stock). Duration: 3 days. Read-out: 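Percent of the per-plate non-targeting control median for intracellular GFP per well by laser scanning cytometry and for cell viability by ATP luminescence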. Direction: GFP, % of control: higher = more GFP per well, higher productivity; viability (ATP), % of control: higher = more viable cells (more ATP). Rule for the call: 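Called active when intracellular GFP, relative to negative control, is at or above 120%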.
The whole screen tested about 50,000 reagents; below is a random part of them. Of all reagents, about 4,000 (8%) were called active. 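Mouse siRNA library applied to hamster cells; one well for each siRNA.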 A number with no mark means an inactive call. The numbers tell different reagents against one gene apart.

Tubb2a (tubulin, beta 2A class IIA) #1 — GFP, % of control: 51.1; viability (ATP), % of control: 90.2
Tubb2a (tubulin, beta 2A class IIA) #2 — GFP, % of control: 83.7; viability (ATP), % of control: 87.3
Serpina1d (serine (or cysteine) peptidase inhibitor, clade A, member 1D) #1 — GFP, % of control: 62.4; viability (ATP), % of control: 62.4
Serpina1d (serine (or cysteine) peptidase inhibitor, clade A, member 1D) #2 — GFP, % of control: 94.5; viability (ATP), % of control: 35.3
Serpina1d (serine (or cysteine) peptidase inhibitor, clade A, member 1D) #3 — GFP, % of control: 80.7; viability (ATP), % of control: 101
Ly86 (lymphocyte antigen 86) #1 — GFP, % of control: 137 (active); viability (ATP), % of control: 109
Ly86 (lymphocyte antigen 86) #2 — GFP, % of control: 80.9; viability (ATP), % of control: 93.8
Ly86 (lymphocyte antigen 86) #3 — GFP, % of control: 63.2; viability (ATP), % of control: 78.6
Adcy7 (adenylate cyclase 7) #1 — GFP, % of control: 39.6; viability (ATP), % of control: 33.6
Adcy7 (adenylate cyclase 7) #2 — GFP, % of control: 21.7; viability (ATP), % of control: 35.7
Adcy7 (adenylate cyclase 7) #3 — GFP, % of control: 86.3; viability (ATP), % of control: 90.9
Gatb (glutamyl-tRNA amidotransferase subunit B) #1 — GFP, % of control: 76.7; viability (ATP), % of control: 70.8
Gatb (glutamyl-tRNA amidotransferase subunit B) #2 — GFP, % of control: 114; viability (ATP), % of control: 87.4
Gatb (glutamyl-tRNA amidotransferase subunit B) #3 — GFP, % of control: 98.6; viability (ATP), % of control: 125
Rbp1 (retinol binding protein 1, cellular) #1 — GFP, % of control: 111; viability (ATP), % of control: 110
Rbp1 (retinol binding protein 1, cellular) #2 — GFP, % of control: 149 (active); viability (ATP), % of control: 150
Rbp1 (retinol binding protein 1, cellular) #3 — GFP, % of control: 40.4; viability (ATP), % of control: 70

Continued, starting with the last 3 of the part before.
Rbp1 (retinol binding protein 1, cellular) #1 — GFP, % of control: 111; viability (ATP), % of control: 110
Rbp1 (retinol binding protein 1, cellular) #2 — GFP, % of control: 149 (active); viability (ATP), % of control: 150
Rbp1 (retinol binding protein 1, cellular) #3 — GFP, % of control: 40.4; viability (ATP), % of control: 70
Mib1 (MIB E3 ubiquitin protein ligase 1) #1 — GFP, % of control: 67.8; viability (ATP), % of control: 79.9
Mib1 (MIB E3 ubiquitin protein ligase 1) #2 — GFP, % of control: 101; viability (ATP), % of control: 82.8
Mib1 (MIB E3 ubiquitin protein ligase 1) #3 — GFP, % of control: 84.1; viability (ATP), % of control: 119
Exoc6 (exocyst complex component 6) #1 — GFP, % of control: 53.2; viability (ATP), % of control: 53.4
Exoc6 (exocyst complex component 6) #2 — GFP, % of control: 77.3; viability (ATP), % of control: 54.8
Exoc6 (exocyst complex component 6) #3 — GFP, % of control: 98.9; viability (ATP), % of control: 84.3
Napepld (N-acyl phosphatidylethanolamine phospholipase D) #1 — GFP, % of control: 171 (active); viability (ATP), % of control: 95.6
Napepld (N-acyl phosphatidylethanolamine phospholipase D) #2 — GFP, % of control: 40; viability (ATP), % of control: 44.9
Napepld (N-acyl phosphatidylethanolamine phospholipase D) #3 — GFP, % of control: 58.5; viability (ATP), % of control: 26
Zkscan2 (zinc finger with KRAB and SCAN domains 2) #1 — GFP, % of control: 44.4; viability (ATP), % of control: 74.4
Zkscan2 (zinc finger with KRAB and SCAN domains 2) #2 — GFP, % of control: 69.5; viability (ATP), % of control: 66.2
Zkscan2 (zinc finger with KRAB and SCAN domains 2) #3 — GFP, % of control: 81.8; viability (ATP), % of control: 117
Ppp1r3c (protein phosphatase 1, regulatory subunit 3C) #1 — GFP, % of control: 120 (active); viability (ATP), % of control: 122
Ppp1r3c (protein phosphatase 1, regulatory subunit 3C) #2 — GFP, % of control: 106; viability (ATP), % of control: 78.1
Ppp1r3c (protein phosphatase 1, regulatory subunit 3C) #3 — GFP, % of control: 85; viability (ATP), % of control: 82.5
Ogdh (oxoglutarate (alpha-ketoglutarate) dehydrogenase (lipoamide)) #1 — GFP, % of control: 45.1; viability (ATP), % of control: 24.9
Ogdh (oxoglutarate (alpha-ketoglutarate) dehydrogenase (lipoamide)) #2 — GFP, % of control: 84.7; viability (ATP), % of control: 62.7
Ogdh (oxoglutarate (alpha-ketoglutarate) dehydrogenase (lipoamide)) #3 — GFP, % of control: 81.1; viability (ATP), % of control: 88.7
Slc1a2 #1 — GFP, % of control: 96.7; viability (ATP), % of control: 65.3
Slc1a2 #2 — GFP, % of control: 70.1; viability (ATP), % of control: 63.4
Slc1a2 #3 — GFP, % of control: 102; viability (ATP), % of control: 98.4
Tas2r118 (taste receptor, type 2, member 118) #1 — GFP, % of control: 66; viability (ATP), % of control: 97.9
Tas2r118 (taste receptor, type 2, member 118) #2 — GFP, % of control: 88.6; viability (ATP), % of control: 94
Tas2r118 (taste receptor, type 2, member 118) #3 — GFP, % of control: 78.1; viability (ATP), % of control: 61.5
